Reference: PubChem BioAssay AID1654 (Sanford-Burnham Center for Chemical Genomics, 2009)
This is one part of the list.

Sequences of proteins named here, by UniProt entry; tags and fusion partners are left off.
UniProt P51452, whole entry: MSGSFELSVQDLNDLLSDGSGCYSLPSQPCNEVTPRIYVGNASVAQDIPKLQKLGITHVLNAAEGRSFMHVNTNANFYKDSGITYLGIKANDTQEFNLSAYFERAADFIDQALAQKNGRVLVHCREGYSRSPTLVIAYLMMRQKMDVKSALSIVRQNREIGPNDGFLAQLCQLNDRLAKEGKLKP

target: Dual specificity protein phosphatase 3 (Homo sapiens) (UniProt P51452); assay: VHR1 phosphatase inhibitors, primary screen, biochemical, absorbance, uHTS (AID 1654); details: recombinant VHR phosphatase, pNPP absorbance; measured here: average of confirmation repeats; at 13.3 µM; stronger effect = higher value

Row | Structure (SMILES) | inhibition [%]
1 | Nc1cccc2c([As](=O)(O)O)cccc12 | -0.9
